{
  "source": "patent US8846903B2",
  "about": "“Acyl-urea derivatives and uses thereof” (Yissum Research Development Company of the Hebrew …, priority 2007, dated 2014)",
  "key": {"rats [1]": {"test_system": "rats", "experiment": "Subcutaneous metrazol seizure threshold test (scMet) in rats", "format": "in vivo", "conditions": "protective index = TD50/ED50, rats", "method": "Subcutaneous Metrazole Seizure Threshold Test (scMet) assay measures the ability of an agent to elevate seizure threshold and is considered to model generalized absence seizures. The assay was performed by subcutaneous injection of 85 mg/kg of the convulsant agent metrazole that induces clonic seizures in at least 97% of all animal models (rats and mice)."}, "rats [2]": {"test_system": "rats", "experiment": "Maximal electroshock seizure test (MES) in rats", "format": "in vivo", "conditions": "protective index = TD50/ED50, rats", "from_the_text": "Briefly, Maximal Electroshock Seizure (MES) assay measures drug capacity to prevent seizure spread and is thus considered to model generalized tonic-clonic seizures. […] The current was delivered to the subjects by means of corneal electrodes to produce tonic hind limb extension. Animals not displaying tonic hind limb extension were considered affected positively by the tested compound."}, "rats [3]": {"test_system": "rats", "conditions": "protective index TD50/ED50, reference substances from literature data; cited from earlier work"}},
  "note": "Where two headings read alike, the source gives them in different places.",
  "data": [
    {"smiles": "CCCC(C(=O)NC(N)=O)C(C)C", "note": "(racemic) [Compound 1, 1-(2-isopropylpentanoyl)urea]", "values": [
      {"measurement": "PI in the scMet test", "setting": "rats [1]", "result": 2},
      {"measurement": "PI in the MES test", "setting": "rats [2]", "result": 6}
    ]},
    {"smiles": "CC[C@@H](C)[C@@H](CC)C(=O)NC(N)=O", "note": "(racemic) [Compound 4, 1-(2-ethyl-3-methyl-pentanoyl)-urea]", "values": [
      {"measurement": "PI in the scMet test", "setting": "rats [1]", "result": 6.9},
      {"measurement": "PI in the MES test", "setting": "rats [2]", "result": 4}
    ]},
    {"smiles": "CC(C)C(C(=O)NC(N)=O)C(C)C", "note": "[Compound 2, 1-(2-isopropyl-3-methylbutanoyl)urea]", "values": [
      {"measurement": "PI in the scMet test", "setting": "rats [1]", "result": 3.5},
      {"measurement": "PI in the MES test", "setting": "rats [2]", "result": 1.7}
    ]},
    {"smiles": "CC(C)(C)CC(=O)NC(N)=O", "note": "[Compound 3, 1-(3,3-dimethyl-butyryl)urea]", "values": [
      {"measurement": "PI in the scMet test", "setting": "rats [1]", "result": 5.5},
      {"measurement": "PI in the MES test", "setting": "rats [2]", "result": 2.2}
    ]},
    {"smiles": "CC1(C)C(C(=O)NC(N)=O)C1(C)C", "note": "[Reference Compound 1, N-(2,2,3,3-tetramethylcyclopropanecarbonyl)urea]", "values": [
      {"measurement": "PI in the MES test", "setting": "rats [3]", "result": 18.5}
    ]},
    {"smiles": "CCCC(CCC)C(=O)O", "note": "[Valproic acid, valproic acid]", "values": [
      {"measurement": "PI in the MES test", "setting": "rats [3]", "result": 1.6}
    ]}
  ]
}
